# Experimental data: the supplement of paper PMC5355238
# Where a name gives a salt, the structure may show the parent alone. This is one part of the list. Single values are uncertain, as repeats are few or missing.
# Tested on: Reh
# Experiment: S-phase gammaH2AX median, Z-score vs plate median (drug alone); higher = more S-phase DNA damage
# Conditions: MK1775 concentration 0 nM; 10 µM; 4 h
row,Structure (SMILES),S-phase gammaH2AX median (Z-score)
1,CN1CCN(CC(=O)N2c3ccccc3C(=O)Nc3cccnc32)CC1 [Pirenzepine dihydrochloride],0.0922
2,Oc1cc2c(cc1O)C(c1ccccc1)CNCC2 (stereo not given),-0.0441
3,NC[C@@H]1O[C@H](C23CC4CC(CC(C4)C2)C3)Cc2c1ccc(O)c2O,-0.0757
4,CC1CCN(CC[C@H]2CCCN2S(=O)(=O)c2cccc(O)c2)CC1,-0.133
5,CCC1(c2ccccc2)C(=O)NCNC1=O [Primidone],-0.0118
6,COc1cc(Nc2c(C#N)cnc3cc(OCCCN4CCN(C)CC4)c(OC)cc23)c(Cl)cc1Cl [Bosutinib (SKI-606)],0.168
7,COc1cc2ncnc(Nc3cccc(Br)c3)c2cc1OC,-0.00889
8,CN(C)CCC(c1ccc(Br)cc1)c1ccccn1 (stereo not given) [(?)-Brompheniramine maleate],-0.0777
9,"COc1ccccc1N1CCN(CCCNc2c(C)c(=O)n(C)c(=O)n2C)CC1 [Urapidil, 5-Methyl-]",-0.287
10,O=C(O)/C=C/C(O)c1ccc(Cl)cc1 (stereo not given),0.0237
11,C[C@]12CCC(=O)C=C1CC[C@@H]1[C@@H]2CC[C@@]2(C)[C@H]1CC[C@]2(O)C(=O)CO [Cortexolone],-0.123
12,CO/N=C(\C(=O)N[C@@H]1C(=O)N2C(C(=O)O)=C(COC(C)=O)CS[C@H]12)c1csc(N)n1 [Cefotaxime sodium],0.0233
13,CNC(=O)[C@@H](NC(=O)[C@H](CC(C)C)[C@H](O)C(=O)NO)C(C)(C)C [Marimastat],0.181
14,C[C@]12CC[C@@H]3c4ccc(O)cc4C[C@@H](CCCCCCCCC[S+]([O-])CCCC(F)(F)C(F)(F)F)[C@H]3[C@@H]1CC[C@@H]2O (stereo not given in full),-0.0584
15,NC1CCN(O)C1=O (stereo not given),-0.118
16,NC(N)=N[C@@H](CCC(=O)O)C(=O)O [alpha-Guanidinoglutaric acid],-0.00945
17,"O=C(O)CCC(C(=O)O)N1C(=O)c2ccccc2C1=O [L-Glutamic acid, N-phthaloyl-]",-0.0378
18,"Cc1cc(Nc2cc(N3CCN(C)CC3)nc(Sc3ccc(NC(=O)C4CC4)cc3)n2)n[nH]1 [VX-680 (MK-0457, Tozasertib)]",-0.0367
19,Nc1nc(OCc2cc(Br)cs2)c2[nH]cnc2n1 [Lomeguatrib],-0.0476
20,CC(=O)Nc1nnc(S(N)(=O)=O)s1 [Acetazolamide],-0.0777
21,c1cc(CN2CCCCC2)cc(OCCCNc2nc3ccccc3s2)c1,-0.0734
22,CCOC(=O)[C@@H](C)Oc1cccc2c(=O)n(CC(=O)Nc3ccc4c(c3)OCCO4)ccc12,0.0205
23,OC[C@H]1O[C@@H](n2cnc3c(N[C@H]4CC5CCC4C5)ncnc32)[C@H](O)[C@@H]1O (stereo not given in full),-0.0504
24,CCN(CC)CCNC(=O)c1ccc(N)cc1 [Procainamide hydrochloride],0.0733
25,COc1ccc2c(c1)c(CC(=O)O)c(C)n2Cc1ccc(F)cc1 [1-(4-Fluorobenzyl)-5-methoxy-2-methylindole-3-acetic acid],-0.0787

row,Structure (SMILES),S-phase gammaH2AX median (Z-score)
1,CCOC(=O)C1=C(C)NC(=S)NC1c1cccc(O)c1 (stereo not given) [Monastrol],0.206
2,CC[C@H]1OC(=O)[C@H](C)[C@@H](O[C@H]2C[C@@](C)(OC)[C@@H](O)[C@H](C)O2)[C@H](C)[C@@H](O[C@@H]2O[C@H](C)C[C@H](N(C)C)[C@H]2O)[C@](C)(O)C[C@@H](C)CN(C)[C@H](C)[C@@H](O)[C@]1(C)O [Azithromycin (Zithromax)],0.00193
3,OCCn1cc(-c2ccc3c(c2)CC/C3=N\O)c(-c2ccncc2)n1,0.138
4,Cc1ccc(-c2cc(C(F)(F)F)nn2-c2ccc(S(N)(=O)=O)cc2)cc1 [Celecoxib],-0.00812
5,CC(C)[N+]1(C)[C@@H]2CC[C@H]1C[C@@H](OC(=O)C(CO)c1ccccc1)C2 (stereo not given in full) [Ipratropium bromide],0.0283
6,CC(C)(C)c1cc(NC(=O)Nc2ccc(-c3cn4c(n3)sc3cc(OCCN5CCOCC5)ccc34)cc2)no1 [Quizartinib (AC220)],0.0599
7,C=C/C(C)=C/[C@@]1(C)SC(=O)C(C)=C1O [Thiolactomycin],-0.0071
8,COc1ccc2c(c1)c(CC(=O)O)c(C)n2C(=O)c1ccccc1 [1-benzoyl-5-methoxy-2-methylindole-3-acetic acid],0.0641
9,O=C(/C=C/c1cccc(S(=O)(=O)Nc2ccccc2)c1)NO [Belinostat (PXD101)],0.177
10,COc1ccc2c3n(c(=NC(=O)c4cccnc4)nc2c1OC)CCN3,-0.0932
11,CCN(CC)CCOCCOC(=O)C1(c2ccccc2)CCCC1 [Carbetapentane citrate],-0.0155
12,Cc1cc(C(C)(C)C)cc(C)c1CC1=NCCN1 [Xylometazoline hydrochloride],0.147
13,"O=c1[nH]ccc2c(O)cccc12 [1,5-Isoquinolinediol]",0.142
14,O=C(c1cc(O)c(O)c([N+](=O)[O-])c1)c1ccccc1F,0.487
15,COc1cc2nc(N3CCN(C(=O)C4COc5ccccc5O4)CC3)nc(N)c2cc1OC (stereo not given) [Doxazosin mesylate],-0.239
16,CNC(=O)c1ccc(N2C(=S)N(c3ccc(C#N)c(C(F)(F)F)c3)C(=O)C2(C)C)cc1F [MDV3100 (Enzalutamide)],0.0947
17,N[C@H]1CONC1=O [L-Cycloserine],-0.00971
18,CCCOc1ccccc1-c1nc2[nH]nnc2c(=O)[nH]1 [Zaprinast],-0.24
19,CC#C[C@]1(O)CC[C@H]2[C@@H]3CCC4=CC(=O)CCC4=C3[C@@H](c3ccc(N(C)C)cc3)C[C@@]21C [Mifepristone],0.166
20,CC#C[C@]1(O)CC[C@H]2[C@@H]3CCC4=CC(=O)CCC4=C3[C@@H](c3ccc(N(C)C)cc3)C[C@@]21C [Mifepristone (Mifeprex)],0.279
21,CC[C@@H]1C(=O)N(C)c2cnc(Nc3ccc(C(=O)N[C@H]4CC[C@H](N5CCN(CC6CC6)CC5)CC4)cc3OC)nc2N1C(C)C [BI6727 (Volasertib)],-0.152
22,COc1ccc(Cl)cc1C(=O)NCCc1ccc(S(=O)(=O)NC(=O)NC2CCCCC2)cc1 [Glibenclamide],0.101
23,O=c1ccn([C@@H]2O[C@H](COP(=O)(O)OP(=O)(O)O)[C@@H](O)[C@H]2O)c(=O)[nH]1 [Uridine 5'-diphosphate sodium],0.133
24,CC(C(O)c1ccc(O)cc1)N1CCC(Cc2ccccc2)CC1 (stereo not given) [Ifenprodil tartrate],0.126
25,"Cc1ccc(OCC(O)C(C)NC(C)C)c2c1CCC2 (stereo not given) [ICI 118,551 hydrochloride]",-0.189

# Quoted at random: four records from the list
row,Structure (SMILES),S-phase gammaH2AX median (Z-score)
3,OCCn1cc(-c2ccc3c(c2)CC/C3=N\O)c(-c2ccncc2)n1,0.138
6,CC(C)(C)c1cc(NC(=O)Nc2ccc(-c3cn4c(n3)sc3cc(OCCN5CCOCC5)ccc34)cc2)no1 [Quizartinib (AC220)],0.0599
15,COc1cc2nc(N3CCN(C(=O)C4COc5ccccc5O4)CC3)nc(N)c2cc1OC (stereo not given) [Doxazosin mesylate],-0.239
12,Cc1cc(C(C)(C)C)cc(C)c1CC1=NCCN1 [Xylometazoline hydrochloride],0.147

# More entries

row,Structure (SMILES),S-phase gammaH2AX median (Z-score)
1,O=C(O)C1=CC(=C(c2ccc(O)c(C(=O)O)c2)c2ccc(O)c(C(=O)O)c2)C=CC1=O [Aurintricarboxylic acid],-0.0641
2,NC(C(=O)O)C(O)C(=O)O (racemic) [DL-threo-beta-hydroxyaspartic acid],0.0693
3,Cn1cc(C(F)(F)F)nc1-c1ccc(OCC(O)CNCCOc2ccc(O)c(C(N)=O)c2)cc1 (stereo not given),-0.0408
4,COc1nc(C)cnc1NS(=O)(=O)c1cccnc1-c1ccc(-c2nnco2)cc1 [Zibotentan (ZD4054)],0.0329
5,CN1[C@@H]2CC[C@H]1C[C@@H](OC(c1ccccc1)c1ccccc1)C2 [Benztropine mesylate],0.00194
6,C[N+](C)(C)CCC(=O)c1cccc2ccccc12 [2-(alpha-Naphthoyl)ethyltrimethylammonium iodide],-0.0781
7,"CC1(C)C(=O)N(CCN2CCC(C(=O)c3ccc(F)cc3)CC2)c2ccccc21 [LY-310,762 hydrochloride]",-0.132
8,NC(=O)Nc1sc(-c2ccc(F)cc2)cc1C(N)=O,-0.053
9,CCCCC1C(=O)N(c2ccccc2)N(c2ccccc2)C1=O [Phenylbutazone],0.17
10,N=C(N)SCCN [2-(2-Aminoethyl)isothiourea dihydrobromide],-0.0796
11,COc1cc2ncnc(Nc3ccc(F)c(Cl)c3)c2cc1NC(=O)/C=C/CN1CCCCC1,0.11
12,Nc1nccc(-c2ccc3noc(-c4ccc(Cl)cc4)c3c2)n1 [PIM-1 Inhibitor 2],0.191
13,Cc1ccc(C(=O)N(CCCN)[C@@H](c2nc3cc(Cl)ccc3c(=O)n2Cc2ccccc2)C(C)C)cc1,-0.136
14,N=C(N)N1CCc2ccccc2C1 [Debrisoquin sulfate],0.0189
15,"O=C(O)Cc1ccc(O)c(O)c1 [3,4-Dihydroxyphenylacetic acid]",-0.0882
16,C[C@@H](Oc1cc(-c2cnn(C3CCNCC3)c2)cnc1N)c1c(Cl)ccc(F)c1Cl,-0.12
17,Nc1c(S(=O)(=O)O)cc(Nc2ccc(Nc3nc(Cl)nc(Nc4cccc(S(=O)(=O)O)c4)n3)c(S(=O)(=O)O)c2)c2c1C(=O)c1ccccc1C2=O [Reactive Blue 2],0.474
18,CC(C)C1C2CCC(C2)C1N (stereo not given),0.00388
19,CNCC[C@@H](Oc1ccccc1C)c1ccccc1 [Tomoxetine],0.621
20,"c1ccc(CN2CCC3(CCCc4ccccc43)CC2)cc1 [L-687,384 hydrochloride]",-0.0993
21,Cc1cccc(C)c1NC(=O)C[N+](C)(C)C [Lidocaine N-methyl hydrochloride],0.0819
22,O=C(OCCN1CCCCC1)c1c[nH]c2ccccc12,0.0472
23,CCCn1c(=O)c2[nH]c(-c3ccc(OCC(=O)NCCN)cc3)nc2n(CCC)c1=O [Xanthine amine congener],-0.908
24,Nc1ccccc1NC(=O)c1ccc(CNc2nccc(-c3cccnc3)n2)cc1 [Mocetinostat (MGCD0103)],0.153
25,C[C@H](CCC(=O)NCCS(=O)(=O)O)[C@H]1CC[C@H]2[C@@H]3[C@H](O)C[C@@H]4C[C@H](O)CC[C@]4(C)[C@H]3C[C@H](O)[C@]12C [Sodium Taurocholate],0.0408
